PubChem BioAssay AID652272, Drosophila RNAi Screening Center – 2013
The deposit covers about 21,000 reagents; shown is an unselected part of those that have a named target and a result. In the full data, 503 (2.4%) were called active. 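Raw plate light values, not normalised; calls rest on replicate z-scores that were not deposited; hits include reporter decreases as well as increases.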 A number with no mark means an inactive call. No sequences are given here. Not stated in the record: the amount of reagent, the time to read-out.

Assay: 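Finding fly genes that regulate Hedgehog signal transduction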 (primary screen)
System: Drosophila clone 8 (Cl8) cells
Knock-down reagent: long dsRNA against Drosophila genes
Measurement: 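Plate reader light from a firefly reporter under a ptc promoter fragment that responds to Hedgehog, with Renilla light as transfection reference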
Direction: firefly Hh reporter signal: higher = more ptc reporter light; Renilla reference signal: higher = more Renilla control light
Active means: 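Hit when the z-score averaged over two replicates is under -2 or over +3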
Calls: active = hit: reporter lowered or raised; inactive = not a hit

no.	gene	dsRNA	firefly Hh reporter signal, replicate 1	firefly Hh reporter signal, replicate 2	firefly Hh reporter signal, replicate 3	Renilla reference signal, replicate 1	Renilla reference signal, replicate 2
1	Cyt-b5 (Cytochrome b5)	DRSC07392	1.15e5	96269		3867	3243
2	tweek	DRSC02433	1.30e5	69379		3012	5592
3	tweek	DRSC02434	97017	58324		2409	4609
4	tweek	DRSC02785	61091	69924		2064	2349
5	CycB3 (Cyclin B3)	DRSC16618	5.07e5	1.04e5		26243	3195
6	CadN (Cadherin-N)	DRSC03286	1.26e5	70896		4121	6460
7	CG14739	DRSC14959	91840	1.44e5		2333	4144
8	Ns4 (Nucleostemin 4)	DRSC03199	1.93e5	1.23e5		6389	5042
9	Nmdar1 (NMDA receptor 1)	DRSC12071	1.88e5			4755	
10	Nmdar1 (NMDA receptor 1)	DRSC12356	49479	99778		2033	2914
11	CG14763	DRSC06497	1.15e5	67120		3109	5538
12	mtm (myotubularin)	DRSC03576	88194	71780		3862	3554
13	CG5910	DRSC11786	61696	81497		2166	2368
14	atk (artichoke)	DRSC11418	4.62e5	1.89e5	90164	3577	3552
15	atk (artichoke)	DRSC11769	1.20e5	84941		4410	2612
16	FASN2 (Fatty acid synthase 2)	DRSC00167	5.72e5	1.96e5		30197	7873
17	FASN2 (Fatty acid synthase 2)	DRSC00610	89210	76553		3825	3068
18	CG43163	DRSC10748	66401	46806		10154	4162
19	CG13308	DRSC09979	64953	70472		7419	4547
20	Slc25A46a	DRSC20125	1.06e5	1.08e5		2666	2763
21	CG32599	DRSC19433	1.13e5	59498		2584	1537
22	Creld (Cysteine rich with EGF like domains)	DRSC00308	80629	77937		1751	1908
23	CG13575	DRSC04211	1.06e5	86453		2666	7660
24	Cpr76Bb (Cuticular protein 76Bb)	DRSC11061	1.66e5	1.53e5		5489	4315
25	Cdc42 (Cell division cycle 42)	DRSC20228	71137	2.61e5		1092	11667
26	Ir87a (Ionotropic receptor 87a)	DRSC14836	1.50e5	1.20e5		5229	3937
27	Mst84Dd (Male-specific RNA 84Dd)	DRSC12600	1.20e5	1.52e5		5324	4608
28	RpL27A (Ribosomal protein L27A)	DRSC00781	38589 (active)	17936		2061	3404
29	scra (scraps)	DRSC07679	66682	45808		2823	1640
30	su(f) (suppressor of forked)	DRSC20907	53334	1.25e5		1170	7111
31	CG18622	DRSC15360	61696	1.23e5		1335	2032
32	PICK1 (Protein interacting with C kinase 1)	DRSC01268	6.05e5	2.32e5		29284	9648
33	PICK1 (Protein interacting with C kinase 1)	DRSC02936	1.34e5	77248		3767	6978
34	CG14419	DRSC17916	1.14e5	3.16e5		4796	11181
35	CG13084	DRSC02188	72960	54060		1970	4594
36	her (hermaphrodite)	DRSC03543	61165	81584		2893	3536
37	yip7 (yippee interacting protein 7)	DRSC11410	47096	45957		5514	3229
38	CG11333	DRSC14301	90059	2.88e5		1883	11373
39	REPTOR-BP (REPTOR-binding partner)	DRSC02683	1.41e5	80056		3633	6554
40	CtsL2 (Cathepsin L2)	DRSC06978	82676	63180		3963	2537
41	U2A	DRSC06445	76259	47642		1803	3820
42	Ugt302E1 (UDP-glycosyltransferase family 302 member E1)	DRSC15635	55897	95469		1584	2744
43	Pi3K21B	DRSC00771	71043	42452		3237	2096
44	CG6931	DRSC10750	1.82e5	1.02e5		6768	4235
45	CG31933	DRSC00457	1.97e5	1.23e5		4476	3351
46	RpS14b (Ribosomal protein S14b)	DRSC18711	47915	22183		3769	939
47	hll (heimdall)	DRSC01944	37360	48776		2326	3100
48	AP-2mu (Adaptor Protein complex 2, mu subunit)	DRSC14090	1.39e5	1.12e5		5568	4589
49	Tip60 (Tat interactive protein 60kDa)	DRSC18661	1.20e5	1.18e5		2801	4672
50	CG14502	DRSC06473	89804	59689		4667	2611
51	Mfe2 (peroxisomal Multifunctional enzyme type 2)	DRSC19869	74139	81629		1824	1793
52	Cmpk (Cytidine/uridine monophosphate kinase 1)	DRSC16643	1.20e5	1.23e5		2770	3003
53	CG3349	DRSC10359	1.04e5			1468	2852
54	mRpL50 (mitochondrial ribosomal protein L50)	DRSC11015	1.75e5	1.03e5		7844	4169
55	Ptp61F (Protein tyrosine phosphatase 61F)	DRSC08683	65881	29848		2476	2576
56	CG18547	DRSC15345	1.08e5	73045		3763	1056
57	dy (dusky)	DRSC20325	1.05e5	4.13e5		2214	14740

Entries above whose target name starts with T or t (4):
gene	dsRNA	firefly Hh reporter signal, replicate 1	firefly Hh reporter signal, replicate 2	firefly Hh reporter signal, replicate 3	Renilla reference signal, replicate 1	Renilla reference signal, replicate 2
tweek	DRSC02433	1.30e5	69379		3012	5592
tweek	DRSC02434	97017	58324		2409	4609
tweek	DRSC02785	61091	69924		2064	2349
Tip60 (Tat interactive protein 60kDa)	DRSC18661	1.20e5	1.18e5		2801	4672
